# PubChem BioAssay AID2417 (National Center for Advancing Translational Sciences (NCATS), 2010)
# In all, about 140,000 compounds went through this assay and about 4,300 (3.1%) were called active. Inconclusive means that the source gave no clear call. Such entries were picked first, then a sample of the others.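 The calls were made as follows: active = readout at or below -70, meaning at least 70% loss of cells showing the perinucleolar compartment, a nuclear body marking cancer cells; inconclusive = readout between -30 and a set limit; inactive = the rest.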
# Experiment: High Content Assay for Compounds that inhibit the Assembly of the Perinucleolar Compartment;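 also: plate controls were DMSO wells for no effect and camptothecin positive control wells for full effect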
# Conditions: PC3M PTB-GFP, PNC prevalence imaging, 16 h; at 10 µM; stronger effect = lower value
# Outline: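 PC3M cells stably expressing PTB-GFP, 750–1000 cells/well, treated 16 h at 37 °C with compound (23 nl of library stock), in duplicate. After paraformaldehyde fixation and Hoechst stain, imaged at 20x; PNC prevalence scored by image analysis.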
row,Structure (SMILES),"activity change (PNC), negative = inhibition"
1,COc1ccccc1/C=C/C=N\N1CCN(Cc2ccccc2Cl)CC1,inactive: 11.1%
2,Cc1ccc(-c2csc(=S)n2CC(=O)OCC(=O)NCc2ccc(F)cc2)cc1,inactive: -18.8%
3,CCOC(=O)c1ccc(S(=O)(=O)NNC(=O)COc2ccc(C)cc2)cc1,inconclusive: -45.6%
4,C=CCCC(=O)Nc1nc(C)c(-c2csc(Nc3ccc(Cl)cc3Cl)n2)s1,inactive: 3.59%
5,O=C(NCC(=O)N(Cc1ccco1)C(C(=O)NC1CCCCC1)c1cccnc1)c1ccco1 (centres undefined),inactive: 23.9%
6,Cc1cc(C)c(C#N)c(SCCS(=O)(=O)Cc2ccc(Cl)cc2)n1,inconclusive: -30.4%
7,Cc1cc(=O)[nH]c2c1c(C)nn2-c1ccccc1,inconclusive: -61.7%
8,CCn1c(/C=C/Nc2ccccc2)[n+](CC)c2ccc(Cl)cc21,inconclusive: -71.5%
9,Nc1ccc(C(=O)N2CCCC2)cc1,inconclusive: -42.6%
10,Cc1ccc(OCCn2cc(C(=S)N3CCCC3)c3ccccc32)cc1C,active: -106%
11,Cc1ccc(C(=O)NCCNC(=O)CN2CCCC2)cc1,inconclusive: -31.8%
12,O=C(CC1c2ccccc2Oc2ccccc21)Nc1ccccc1C(F)(F)F,inactive: 29.8%
13,CC(C)(C)C(=O)NC(=S)Nc1cc(C(=O)O)ccc1Cl,inconclusive: -31.2%
14,CC1CCN(c2ccccc2NC(=S)NC(=O)c2cccs2)CC1,inconclusive: -41.5%
15,COc1ccc(OC)c(N/C(C)=C/C(=O)c2ccc(C)o2)c1,inconclusive: -68.6%
16,CC1CC2(NC(=O)NC2=O)C(C)CN1C (centres undefined),inconclusive: -51.8%
17,Cc1nn(C)c(C)c1S(=O)(=O)N1CCCC(C(=O)N2CCN(c3ccc(Cl)cc3)CC2)C1 (centres undefined),inconclusive: -45.2%
18,CCCCN1CCc2c([nH]c3ccc(C)cc23)C1=O,active: -100%
19,Cc1cccc(-n2c(O)c(/C=N/NC(=O)c3ccccc3Cl)c3ccccc3c2=O)n1,inconclusive: -47.2%
20,C/C(=N\NC(=O)Cn1nc(C)c([N+](=O)[O-])c1C)c1ccc(O)cc1,inconclusive: -36.4%
21,Cc1ccc(C(=O)NNC(=S)NC(=O)c2ccc(Cl)cc2)cc1,inactive: 69.5%
22,CCOc1cc(C2/C(=C(/O)c3ccc(OC(C)C)cc3)C(=O)C(=O)N2CCCOC)ccc1O (centres undefined),inactive: -20.1%
23,CCOC(=O)c1c(O)c2c([nH]c1=O)CCCC2,inconclusive: -68.4%

row,Structure (SMILES),"activity change (PNC), negative = inhibition"
1,CCC(Sc1nc(-c2ccccc2)c(C#N)c(=O)[nH]1)C(=O)Nc1cc(C)on1 (centres undefined),inconclusive: -49.7%
2,CCc1nc(SCC(=O)N2CCC(C)CC2)c2c(=O)n(C)c(=O)n(C)c2n1,inactive: -14%
3,O=C(COc1ccccc1-c1ccccc1)Nc1ccc(S(=O)(=O)NCc2ccco2)cc1,inconclusive: -47.2%
4,NC(=O)N1CC(O)CC1C(=O)Nc1ccc(Cl)c(Cl)c1 (centres undefined),inconclusive: -31.6%
5,C=CCN1C(=O)C2(/C(=C(\O)c3ccc4c(c3)OCCO4)C(=O)C(=O)N2CCCOC)c2ccccc21 (centres undefined),active: -96.4%
6,CCN=C1SC(C(=O)Nc2cccc(C)c2)CC(=O)N1CC (centres undefined),inactive: -23.1%
7,Cc1ccc(C(=O)Nc2ccccc2N2CCN(C(=O)C(C)C)CC2)cc1C,inconclusive: -64.8%
8,COC(=O)c1cc(=O)cc(C(=O)OC)o1,inconclusive: -56.7%
9,Cc1cccc2sc(NC(=O)C3CCCO3)nc12 (centres undefined),active: -100%
10,NC(=S)N=Nc1c(O)[nH]c2cc(F)c(F)cc12,inconclusive: -39.4%
11,O=C(O)CCn1c(=O)sc2ccccc21,inconclusive: -45.4%
12,Cc1ccc(S(=O)(=O)CCC(=O)OCc2ccc(Cl)cc2)cc1,inactive: -6.12%
13,CCCCNC(=S)Nc1ccc(-c2nc3ccc(C)cc3s2)cc1,inconclusive: -33.3%
14,Cc1nnc(SCC(=O)N/N=C/c2cc(Cl)c(O)c(Cl)c2)s1,inconclusive: -51.9%
15,COc1cc(S(=O)(=O)N2CCC(c3nc4ccccc4s3)CC2)ccc1S(=O)(=O)N1CC(C)CC(C)C1 (centres undefined),inactive: 257%
16,Cc1ccc(/C=C/C(=O)c2cc(Br)ccc2OC(=O)c2ccco2)cc1,inconclusive: -30.6%
17,CN(Cc1ccccc1)c1nc(-c2ccc([N+](=O)[O-])cc2)nc2ccccc12,active: -98.2%
18,C=CCn1c(SCC(=O)NC2CCCc3ccccc32)nnc1-c1ccncc1 (centres undefined),inactive: -20.9%
19,CC(=O)OCC(=O)N1CCN(c2ccc([N+](=O)[O-])cc2)CC1,inactive: 0.362%
20,O=C(Nc1nc(C2C3CC4CC(C3)CC2C4)cs1)c1cc2cc([N+](=O)[O-])ccc2oc1=O (centres undefined),inconclusive: -71.6%
21,COc1cc2c(cc1NC(=O)/C=C/c1cc(OC)c(OC)c(OC)c1)oc1ccccc12,inconclusive: -33.1%
22,Cc1cc(OCC(=O)C(C)(C)C)c2c(C)c(C)c(=O)oc2c1,active: -100%
23,O=C(NC(Cc1ccccc1)C(=O)N1CCN(c2ccccn2)CC1)c1ccco1 (centres undefined),inconclusive: -35.6%

row,Structure (SMILES),"activity change (PNC), negative = inhibition"
1,Cc1noc(C)c1S(=O)(=O)N(C)CC(=O)NCc1ccccc1,inconclusive: -32.7%
2,Cc1cc(C)n(Cc2ccc(Cl)cc2Cl)c(=O)c1S(=O)(=O)c1ccccc1,inconclusive: -56.7%
3,CCOc1ccc(C2NC(=O)C(C#N)=C(S)N2c2ccc(C)cc2)cc1OC (centres undefined),inactive: -13%
4,O=C(CN(C(=O)Cn1nnc(-c2ccccc2F)n1)c1cccc2c1CCCC2)NCc1ccccc1,inconclusive: -45.2%
5,O=C(NCC1CCCO1)C(=O)NCC(c1ccco1)N1CCN(c2ccccc2F)CC1 (centres undefined),inactive: 13.3%
6,Cc1c(Cl)c([N+](=O)[O-])nn1CCCC(=O)Nc1cccc(Cl)c1Cl,inactive: 23.3%
7,Cc1ccc(-c2cc(C(F)F)n3ncc(C(=O)N4CCCc5ccccc54)c3n2)cc1,active: -100%
8,COc1ccc(/C=N/NC(=O)c2ccc(COc3ccccc3Cl)o2)c(OC)c1C,inconclusive: -30.2%
9,CN(CC(=O)NC(=O)NCc1ccccc1)Cc1ccc(Cl)cc1,inconclusive: -58.7%
10,Cn1c(SCc2cccc(C(F)(F)F)c2)nnc1-c1ccco1,inactive: 12.9%
11,Cc1cc(C(=O)O)ccc1N/C=C1\CCCC(C)C1=O (centres undefined),inactive: -5.44%
12,CC1=CC2=NC(=O)/C(=C\c3cc(C)n(-c4cccc(Cl)c4)c3C)C(=N)N2O1,inactive: 5.55%
13,CCCOc1ccc(N2C(=O)CC(N3CCN(c4ccccc4OC)CC3)C2=O)cc1 (centres undefined),inconclusive: -34.9%
14,C=CCc1ccc(OCCOCCOc2ccc(C)cc2[N+](=O)[O-])c(OC)c1,inactive: 9.04%
15,COc1cccc2c(SCC(=O)N/N=C/c3ccccc3)cc(C)nc12,inactive: -22.8%
16,O=C(CNc1ccc2c(c1)OCO2)N/N=C\c1ccccc1Cl,inconclusive: -51%
17,Cc1cccc(-c2nnc(NC(=O)c3cccs3)s2)c1,inconclusive: -58%
18,N#Cc1ccc(Oc2ccc(-c3cnc4ccccc4n3)cc2)cc1C#N,inactive: -25.7%
19,CCc1ccc(OCC(=O)NC(NC(=S)Nc2ccc(Cl)cc2)C(Cl)(Cl)Cl)cc1 (centres undefined),inconclusive: -41.7%
20,CC1(C)CC(=O)C2=C(C1)NC(SCC(=O)Nc1ccccc1)=C(C#N)C2c1ccco1 (centres undefined),inactive: -22.9%
21,Cc1cc(C)nc(SCC(=O)N2CCC(C(N)=O)CC2)n1,inconclusive: -37%
22,O=C(c1cc2nc(-c3ccco3)cc(C(F)(F)F)n2n1)N1CCN(c2ccc(F)cc2)CC1,inactive: 19%
23,COc1ccc(NC(=O)c2sccc2SCC#N)cc1,active: -88.1%

row,Structure (SMILES),"activity change (PNC), negative = inhibition"
1,COc1ccc(NC(=O)c2cccs2)cc1O,inconclusive: -62.9%
2,Cc1cc(-c2ccccc2)nc(N2CCC(C(=O)NC(C)C)CC2)n1,active: -99.6%
3,CCCCOC(=O)c1ccc(NC(=O)/C=C/c2cccs2)cc1,inactive: -20.9%
4,CCOc1ccc(S(=O)(=O)NNC(=O)c2cc3ccccc3o2)cc1,inactive: -5.5%
5,COc1cc(C)c(NC(=S)Nc2ccc(C)c(Cl)c2)cc1OC,inactive: -18.3%
6,COc1ccc(C(=O)NCCc2c[nH]c3ccccc23)cc1S(=O)(=O)N1CCOCC1,inactive: -20.9%
7,O=C1C2CCCN2C(=O)N1CCN1CCN(CCO)CC1 (centres undefined),inconclusive: -52.1%
8,C/C(=N\OCC(=O)Nc1ccc(F)c(F)c1F)c1cc2ccccc2o1,inconclusive: -45%
9,Cc1ccc(-n2ccnc2SCC(=O)O)c(C)c1,inconclusive: -44.4%
10,O=C(NCCc1ccccc1)C(=O)c1c(-c2ccccc2)[nH]c2ccccc12,inconclusive: -35.9%
11,Cc1ncc(CSc2nc3ccccc3[nH]2)c(N)n1,inconclusive: -63.1%
12,Cc1cc(C)c(NC(=O)c2cnn(C)c2)c(C)c1,inconclusive: -65.6%
13,O=C(CSc1ccc2nnc(-c3ccc(Cl)cc3)n2n1)N1CCc2ccccc21,inconclusive: -36.3%
14,O=C(Nc1ccccc1)NC1CCCCC1,inconclusive: -41.2%
15,COc1cccc(CN2C(=O)C3(C(C#N)=C(N)OC4=C3C(=O)CCC4)c3ccccc32)c1 (centres undefined),inconclusive: -36.1%
16,Nc1c(Nc2ccccc2)c2ccccc2oc1=O,inconclusive: -43%
17,COc1cccc(C(=O)/C=C/Nc2ccc(S(=O)(=O)Nc3cnc4ccccc4n3)cc2)c1,inconclusive: -61.2%
18,O=C(Nc1nc2c(s1)CN(Cc1ccccc1)CC2)c1cccc(S(=O)(=O)N2CCc3ccccc32)c1,inactive: 27.3%
19,Oc1ccccc1C1=Nc2ncnn2C(c2ccc(F)cc2)C1 (centres undefined),inactive: 18.9%
20,Cc1cccc(C)c1OCC(O)Cn1c2ccccc2c2ccccc21 (centres undefined),inconclusive: -41.1%

# 6 entries picked at random from the list so far, as already listed:
row,Structure (SMILES),"activity change (PNC), negative = inhibition"
23,O=C(NC(Cc1ccccc1)C(=O)N1CCN(c2ccccn2)CC1)c1ccco1 (centres undefined),inconclusive: -35.6%
19,Oc1ccccc1C1=Nc2ncnn2C(c2ccc(F)cc2)C1 (centres undefined),inactive: 18.9%
6,Cc1c(Cl)c([N+](=O)[O-])nn1CCCC(=O)Nc1cccc(Cl)c1Cl,inactive: 23.3%
6,Cc1cc(C)c(C#N)c(SCCS(=O)(=O)Cc2ccc(Cl)cc2)n1,inconclusive: -30.4%
5,O=C(NCC(=O)N(Cc1ccco1)C(C(=O)NC1CCCCC1)c1cccnc1)c1ccco1 (centres undefined),inactive: 23.9%
20,CC1(C)CC(=O)C2=C(C1)NC(SCC(=O)Nc1ccccc1)=C(C#N)C2c1ccco1 (centres undefined),inactive: -22.9%
